According to PubChem BioAssay AID602296 (Broad Institute, 2012):
Screen size: about 2,000 compounds; about 190 (9.5%) were called active. Inconclusive results (about 14%) are left out.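 How the source made its calls: active means fitted activation curve crossing 40% at a concentration no higher than the sample's top valid tested dose; inconclusive means flat fitted curve at 30% to 70% activation, or poor curve fit; inactive means signal decrease, flat curve within 30%, or the rest.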 This part holds few or none of the hits.

Assay: sustained heat shock response element induction – cell-based, mouse, luciferase, cherry-pick, dose, confirmation (AID 602296);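 further: test compounds applied by themselves with no MG132 co-treatment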
Settings: NIH3T3-HGL HSF-1 response element luciferase, 48 h; at 26 µM (top of the series) unless noted
In the case of `CCCCn1c(O)c(/C=C2\C=NN=C2c2ccccc2)sc1=S`, the activation is reported as inactive: -17.1%. In the case of `COCCn1c(C)cc(C(=O)COC(=O)c2ccc(-n3nc(C)cc3C)cc2)c1C`, the activation is reported as inactive: -6.84%. For `COc1ccccc1NC(=O)CN1CCN(CC(=O)Nc2ccccc2Cl)CC1`, the activation was inactive: -13%. With `COc1ccc(C2N(C(=O)CN3CCCC3)CCCN2S(=O)(=O)c2ccccc2)cc1` (configuration not stated) the activation was inactive: 8.31%. In the case of `Cc1ccc(NC(=O)c2sc(N)nc2-c2ccc([N+](=O)[O-])cc2)c(C)c1`, the activation is reported as inactive: -8.25%. In the case of `Cc1[nH]n(-c2ccccc2)c(=O)c1C(C[N+](=O)[O-])c1ccc(F)cc1` (configuration not stated), the activation is reported as inactive: -47.7%. In the case of `COc1ccc(N2CCN(C(c3cccs3)C(C)NS(=O)(=O)c3ccccc3)CC2)cc1` (configuration not stated), the activation is reported as inactive: -37.6%. For `CC(=O)Nc1ccc(C2=NN(Cc3nnc(-c4ccccc4)o3)C(=O)SC2)cc1`, the activation was inactive: 13%. For `O=C/C=C/c1c(-c2ccccc2)cc2oc3ccccc3cc1-2`, the activation was inactive: -78.8%. In the case of `Cc1cc(F)ccc1NCc1cc2c(cc1[N+](=O)[O-])OCO2`, the activation is reported as inactive: 1.55%. In the case of `COc1cc2[nH]c(=S)nc(NCc3cccs3)c2cc1OC`, the activation is reported as inactive: -18.2%. In the case of `COc1cc(/C=C/C(=O)N2CCOCC2)ccc1OCc1ccccc1`, the activation is reported as inactive: -6.72%. With `Nc1nnnn1CC(=O)N/N=C/c1ccccn1` the activation was inactive: 5.51%. With `COc1cc(/C=C(\C#N)C(=O)NC2CCCCC2C)ccc1OS(=O)(=O)c1ccc(C)cc1` (configuration not stated) the activation was inactive: -107%. With `CCOc1ccc(CNC(=O)c2cccc(NC(=O)C3=C(C)OCCS3)c2)cc1` the activation was inactive: -15.6%. For `Cc1cc(C)n(-c2nc3ccccc3nc2N2CCN(C(=O)c3ccc(F)cc3)CC2)n1`, the activation was inactive: -13.6%. In the case of `O=C(CCl)Nc1cccc(Oc2ccccc2)c1`, the activation is reported as inactive: -97.6%. For `Cc1ccc(C2C(C#N)=C(N)SC(N)=C2C#N)c(C)c1`, the activation was inactive: -31%. With `CC(=O)Nc1ccccc1OC(C)C(=O)N1CC(C)CC(C)C1` (configuration not stated) the activation was inactive: 5.82%. With `NS(=O)(=O)c1ccc(CCNC(=O)c2ccc([N+](=O)[O-])s2)cc1` the activation was inactive: -4.33%. With `COc1ccc(N2C(=O)CC(Sc3nnnn3-c3ccc(F)cc3)C2=O)cc1` (configuration not stated) the activation was inactive: -104%. With `COCCn1c(N)c(N(Cc2ccccc2)C(=O)c2ccc(C#N)cc2)c(=O)[nH]c1=O` the activation was inactive: -1.83%. For `Nc1nc2ccccc2n1/N=C/c1ccc([N+](=O)[O-])s1`, the activation was inactive: -35.6%. In the case of `Cc1c(CNCCc2ccccc2)c(C(=O)O)c(C)n1-c1ccccc1`, the activation is reported as inactive: 5.58%. In the case of `CCC(NC(=O)/C(=C\c1ccc2c(c1)OCO2)NC(C)=O)C(=O)O` (configuration not stated), the activation is reported as inactive: -1.08%. In the case of `Cc1cn(Cc2ccccc2Cn2cc(C)c(=O)[nH]c2=O)c(=O)[nH]c1=O`, the activation is reported as inactive: -1.32%. In the case of `COc1cc2nc(NC(=O)c3ccc(Cl)cc3)sc(=O)c2cc1OC`, the activation is reported as inactive: -12.1%. With `CC(=O)Oc1ccc(-c2cccc(C(=O)OCC(=O)N(C)c3ccccc3)c2)cc1` the activation was inactive: -9.99%. With `CCOC(=O)C(C(=O)OCC)C(Nc1ccc(Br)cc1)c1ccccc1` (configuration not stated) the activation was inactive: -61%. In the case of `Cn1c(/C=C/c2ccc([N+](=O)[O-])o2)nc2ccccc2c1=O`, the activation is reported as inactive: -100%. For `CC#CC[N+](C)(C)CCCCCCCCCCCC`, the activation was inactive: -65%. In the case of `CC(C)(C)c1ccc(Cn2c(=N)n(CC(O)c3ccco3)c3ccccc32)cc1` (configuration not stated), the activation is reported as inactive: -47.9%. In the case of `CCOc1ccc(/C=N/NC(=O)C(C)N(c2ccc(OC)cc2)S(C)(=O)=O)cc1` (configuration not stated), the activation is reported as inactive: 8.66%. In the case of `O=C1[C@@H]2Cc3c([nH]c4ccccc34)C(c3ccc([N+](=O)[O-])cc3)N2C(=O)CN1C1CC1` (some centres not stated), the activation is reported as inactive: -1.65%. For `O=C(CSc1ncnc2c1nnn2-c1ccc(F)cc1)NCC1CCCO1` (configuration not stated), the activation was inactive: -4.24%. For `CCc1ccc(NC(=O)CSC2=C(C#N)C(c3ccc4c(c3)OCO4)CC(=O)N2)cc1` (configuration not stated), the activation was inactive: 10.5%. In the case of `CCOC(=O)Cc1cnc(NC(=O)NC(C(=O)OCC)(c2ccccc2)C(F)(F)F)s1` (configuration not stated), the activation is reported as inactive: -11%. In the case of `O=C(NCCc1cccc(Cl)c1)c1cc2ccccc2oc1=O`, the activation is reported as inactive: 5.86%. In the case of `COc1cc(C)c(S(=O)(=O)N2CCN=C2c2ccccc2)cc1C`, the activation is reported as inactive: -8.16%. For `Cc1cccc(C)c1N1CCN(c2ccc3nnc(C(F)(F)F)n3n2)CC1`, the activation was inactive: -75.2%. With `COc1ccc(S(=O)(=O)N(C)CC(=O)N2CCC(C(N)=O)CC2)cc1Cl` the activation was inactive: 15.7%. With `Cc1ccc(S(=O)(=O)c2c(N)n(CCC(C)C)c3nc4ccccc4nc23)cc1` the activation was inactive: -64.2%. In the case of `COc1cccc(C(=O)COC(=O)C(C)N2C(=O)C3C4C=CC(C4)C3C2=O)c1` (configuration not stated), the activation is reported as inactive: 1.17%. For `O=C(O)c1ccccc1OC(C(=O)Nc1cc(Cl)cc(Cl)c1)c1ccccc1` (configuration not stated), the activation was inactive: -26.7%. With `ClCC1CSC(=NC23CC4CC(CC(C4)C2)C3)O1` (configuration not stated) the activation was inactive: -9.01%. In the case of `O=C(Nc1ccccc1C(=O)N1CCCC1)c1ncoc1-c1cccc(Cl)c1`, the activation is reported as inactive: -19.5%. With `CC(=O)N(C)c1ccc(OCC(O)Cn2c3ccc(Cl)cc3c3cc(Cl)ccc32)cc1` (configuration not stated) the activation was inactive: -96%. For `O=C(N/N=C/c1ccccn1)c1cc(-c2ccc(Br)cc2)nc2ccccc12`, the activation was inactive: 7.99%. With `Clc1ccc(-n2c(SC/C=C/c3ccccc3)nnc2-c2cccnc2)cc1` the activation was inactive: -11.5%. In the case of `Cc1cc(NC(=O)Cn2cnc3sc(C)c(-c4ccccc4)c3c2=O)no1`, the activation is reported as inactive: 1.53%. In the case of `Cn1cc(CNC(=O)c2sc3cccc(Cl)c3c2Cl)cn1`, the activation is reported as inactive: 0.869%. For `CC(c1ccccc1)N1CC(C(=O)N2CCN(c3ccc(F)cc3)CC2)CC1=O` (configuration not stated), the activation was inactive: 5.29%. With `Cc1ccc(S(=O)(=O)n2cnc3ccccc32)cc1[N+](=O)[O-]` the activation was inactive: 5.61%. With `COc1ccc2c(c1)-c1nc(/N=C/c3c(O)ccc4ccccc34)sc1CC2` the activation was inactive: -0.997%. For `C=CCSc1nnc(N2C(=O)C(O)=C(C(=O)c3ccco3)C2c2ccc(F)cc2)s1` (configuration not stated), the activation was inactive: 3.75%. In the case of `Cn1c(=O)cc(SCC(=O)N2CCOCC2)c2ccc(Cl)cc21`, the activation is reported as inactive: -7.83%. For `CC1CN(C(=S)NC(=O)C2CCCCC2)CC(C)O1` (configuration not stated), the activation was inactive: -8.85%. For `N=c1c(S(=O)(=O)c2ccc(Cl)cc2)cc2c(=O)n3ccccc3nc2n1Cc1ccco1`, the activation was inactive: 12.6%. For `Cc1c(OCC(=O)NCCCn2ccnc2)ccc2c3c(c(=O)oc12)CCCC3`, the activation was inactive: -7.74%. With `CCn1c(CNC(C)=O)nnc1SCC(=O)c1ccc(Br)cc1` the activation was inactive: -12% [at 12 µM]. In the case of `Cc1ccc(NC(=S)N=Nc2c(O)n(C)c3ccc(S(=O)(=O)N4CCOCC4)cc23)cc1`, the activation is reported as inactive: -31.1%. With `Cc1cccc(S(=O)(=O)NCCC(=O)OC(C)C(=O)NC(=O)NC2CCCCC2)c1` (configuration not stated) the activation was inactive: -9.37%. In the case of `O=C(Nc1cccc(Cl)c1)c1cc(S(=O)(=O)NCCc2ccc(Cl)cc2)ccc1F`, the activation is reported as inactive: -101%. For `CC(=O)/C(=N/Nc1ccc(Br)cc1)N1CCCc2ccccc21`, the activation was inactive: -58.4%. With `CC(=O)Nc1ccc2c(c1)N(C(=O)CN(C)C)c1ccccc1CC2` the activation was inactive: 8.29%. With `Cc1ccc(-n2nc3c(=O)n(C(C)C(=O)NCc4ccccc4Cl)nc(C)c3c2C)cc1` (configuration not stated) the activation was inactive: -40.9%. With `CCC(Sc1nc2n[nH]c(C)c2c(=N)n1-c1ccc(C)c(Cl)c1)C(=O)N1CCOCC1` (configuration not stated) the activation was inactive: -35.5%. With `COc1ccc(C(=O)/C=C/C(=O)N(CC(=O)NC2CCCCC2)Cc2ccccc2)c(O)c1` the activation was inactive: -104%. With `O=C(Nc1cccc(Cl)c1)Nc1csc([N+](=O)[O-])c1` the activation was inactive: -42.5% [at 12 µM]. In the case of `Cc1cccc(N(CC(=O)Nc2ccccc2-c2ccccc2)S(=O)(=O)c2ccccc2)c1C`, the activation is reported as inactive: -30.2%. For `COc1cc(/C=C/C(=O)OCc2c(C)noc2C)ccc1OC(F)F`, the activation was inactive: -31.2%. With `CCC(C)(C)NC(=O)C(c1ccc(C)cc1)N(Cc1cccs1)C(=O)c1ccc2c(c1)OCCO2` (configuration not stated) the activation was inactive: -63.5%. In the case of `O=C(NC1CCCCC1)c1cnn2c(C(F)(F)F)cc(-c3ccco3)nc12`, the activation is reported as inactive: -16.6%. With `CCc1[nH]c(=O)c(C#N)c2c1CSC(C)(C)C2` the activation was inactive: 3.45%. In the case of `COc1ccc(S(=O)(=O)N/N=c2\oc3c(OC)cccc3cc2S(=O)(=O)c2ccc(C)cc2)cc1OC`, the activation is reported as inactive: -22%. For `O=C(Nc1ccc([N+](=O)[O-])cc1)C1C(c2ccccc2)=C1c1ccccc1`, the activation was inactive: -16.1%. With `COc1ccccc1NC(=O)N(Cc1ccco1)Cc1cc2ccc(C)c(C)c2[nH]c1=O` the activation was inactive: -60%. In the case of `O=S(=O)(c1ccc(Cl)c(NC(=S)N/N=C/c2ccc(O)cc2)c1)N1CCOCC1`, the activation is reported as inactive: -6.39%. In the case of `O=C(Nc1ccccc1)C1=C(O)CC(c2ccoc2)CC1=Nc1ccccc1` (configuration not stated), the activation is reported as inactive: 4.14%. With `COc1cc(C(=O)NCC2CCCO2)ccc1OCc1ccc(Cl)cc1Cl` (configuration not stated) the activation was inactive: 3.14%. In the case of `CCNC(=O)C(=O)NCc1ccncc1`, the activation is reported as inactive: -12.5%. With `Cn1c(SCC(=O)NNC(=O)Nc2ccc(Cl)cc2)nnc1-c1ccccc1` the activation was inactive: 10.8%. For `O=S1(=O)NC(=NCC(c2ccco2)N2CCCCC2)c2ccccc21` (configuration not stated), the activation was inactive: -6.74%. With `Cc1ccc(O)c(C(=O)c2cnc3c(c2)CN(CCC(C)C)C(=O)N3)c1` the activation was inactive: -37%. For `Cc1cccc(C(C)C)c1NC(=O)COC(=O)c1cccc(S(=O)(=O)N2CCc3ccccc3C2)c1`, the activation was inactive: -3.49%. In the case of `CCOC(=O)C1(CCOc2ccccc2)CCN(Cc2cc(OC)c3c(c2)OCO3)CC1`, the activation is reported as inactive: -22.8%. With `Oc1ccc2ccccc2c1CN1CCN(c2ccccc2)CC1` the activation was inactive: 4.29%.
